Patent US9988361B2, “Anti-enterovirus 71 thiadiazolidine derivative” (JIANGSU KANION PHARMACEUTICAL CO. LTD, priority 2014, dated 2018)

Test system: EV71 virus strain Shenzhen/120F1/09
Assay: EV71 in-vitro cytopathic effect (CPE) test
Type: cell-based, RD cells of human rhabdomyoma
Details: Enterovirus A, EV71, RD, 72 h, read-out: EC50 by EC71 CPE test, EV71
Method: Test of EV71 In-Vitro Cytopathic Effect (CPE) To test the in-vitro antiviral activity and cytotoxicity of a compound to HFMD virus EV71 by means of cytopathic effect (CPE) test. […] Cell line: RD cells of human rhabdomyoma • 3. Cell culture media: DMEM medium added with 10% serum, Penicillin/Streptomycin and L-[…]×) • 4. […] Cell inoculation: digest off the RD cells from the attached state, then dilute them with culture medium to a density of 80000/ml and inoculate 100 μl into the micro wells the 96-well plate. • 2. Dilution of compound: • Step 1: prepare the dry powder of a compound to test into a 10 mM solution in DMSO. Then dilute the compound by three times to eight concentration points. Dilute the reference compounds with the same method. • Step 2: further dilute the diluted solution of the compound in DMSO with cell culture medium. Add 10 μl DMSO solution for each well into 240 μl culture medium. • 3. Add the diluted compound solution by 50 μl each well into the 96-well plate inoculated with cells (double holes, final concentration of DMSO is 1%). • 4. Dilution of virus: dilute EV71 virus solution by 10000 times to a concentration of 100 TCID50/50 μl/. Add the diluted virus solution by 50 μl each well into the 96-well plate. […] Use ELIASA to read the absorbancy at the wavelength of 450 nm and 630 nm. • 7.

Question: With `CO/N=C1\CCc2cc(OCCCCCN3CCN(c4ccnc(N)c4)S3(=O)=O)ccc21` [Embodiment 57, (E)-2-(2-amino-pyridin-4-yl)-5-(5-((1-(ethoxy-imino)-2,3-dihydro-1H-inden-5-yl)-oxy)-pentyl)-1,2,5-thiadiazolidine-1,1-dioxide] as the compound, how does the EC50 read?
Answer: Its EC50 is < 50 nM.
